For 1 substance, binding results are on record in US20210008044A1.

The chains behind the UniProt entries cited, without tags or fusion partners. Residues count along the entry.
UniProt P53762, residues 2-791: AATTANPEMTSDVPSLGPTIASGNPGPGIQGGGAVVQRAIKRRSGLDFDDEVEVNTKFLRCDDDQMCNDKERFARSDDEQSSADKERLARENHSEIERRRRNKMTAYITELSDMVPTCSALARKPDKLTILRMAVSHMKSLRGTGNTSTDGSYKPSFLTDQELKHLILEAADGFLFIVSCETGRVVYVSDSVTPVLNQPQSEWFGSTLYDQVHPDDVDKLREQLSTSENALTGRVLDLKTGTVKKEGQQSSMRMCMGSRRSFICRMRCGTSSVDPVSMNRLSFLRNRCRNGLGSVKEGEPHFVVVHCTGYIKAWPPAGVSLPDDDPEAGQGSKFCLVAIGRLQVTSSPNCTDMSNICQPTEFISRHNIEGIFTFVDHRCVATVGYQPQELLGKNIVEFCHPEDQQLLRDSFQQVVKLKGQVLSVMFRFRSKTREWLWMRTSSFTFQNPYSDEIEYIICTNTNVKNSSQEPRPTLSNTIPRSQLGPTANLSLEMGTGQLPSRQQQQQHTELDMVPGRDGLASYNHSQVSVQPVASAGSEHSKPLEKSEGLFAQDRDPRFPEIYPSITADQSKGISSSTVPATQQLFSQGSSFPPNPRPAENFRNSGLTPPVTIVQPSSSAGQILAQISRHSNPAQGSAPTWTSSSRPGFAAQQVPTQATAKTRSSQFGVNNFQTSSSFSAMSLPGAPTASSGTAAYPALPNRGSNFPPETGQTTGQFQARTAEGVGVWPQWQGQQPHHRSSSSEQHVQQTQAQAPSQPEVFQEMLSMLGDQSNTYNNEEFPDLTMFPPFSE

Assay [1] has as its target ARNT (aryl hydrocarbon receptor nuclear translocator, synonym HIF1β), endogenous in murine tubular epithelial cells and mouse kidney (mouse) (UniProt P53762). Nature of the assay: Arnt immunoprecipitation, native gel and immunoblot of total kidney lysates of UUO mice treated with FK506 (FIG. 38).
The target is the same in assay [2]. Nature of the assay: native gel electrophoresis and immunoblot, cultured murine TECs; dimer formation further enhanced upon FK506 (FIG. 35). On the technique in general: In western blotting, separated proteins are transferred to a membrane and probed.

These are yes or no findings as the source states them, for the method shown. Some entries that bind do so weakly or less than the wild type.

In the case of “ARNT (aryl hydrocarbon receptor nuclear translocator, synonym HIF1β), endogenous in murine tubular epithelial cells and mouse kidney (from UniProt P53762 2-791)”, the binding entry in assay [1] and in assay [2] was “binds” in each case.
